# In patent US8691822B2, “Dihydropteridinone derivatives, preparation process and pharmaceutical use thereof” (Jiangsu Hengrui Medicine Co., Ltd., priority 2009, dated 2014):
# For some assays here: The name of at least one read-out is uncertain. For some assays here: For at least one compound, name, drawing or mass did not settle the structure.
# Tests used:
# [1] = test system: xenografts of HT-116 human colon cancer; assay: Therapeutic effects against xenografts of HT-116 human colon cancer in nude mice; assay type: in vivo; conditions: compound in normal saline
# Procedure: The therapeutic effect of Example 1 against xenografts of HT-116 human colon cancer in nude mice was estimated.
# Preparation method: the compound of Example 1 was prepared to corresponding concentration by using normal saline.
# BALB/cA-nude mice, 6 to 7 weeks old, ♀, purchased from Slaccas Experimental Animal LTD., CO.
# Nude mice were hypodermic inoculated HT-116 human colon cancer cell. After tumors grew to 60-150 mm^3, mice were randomly divided into teams (d0).
# The volume of tumors and the weigh of the mice were measured and recorded for 2-3 times per week.
# The calculation formula of the volume of tumor (V) is: V=½×a×b^2, a: length of tumor, b: width of tumor.
# [2] = Pharmacokinetics assay in rats (plasma concentration by LC/MS/MS); assay type: in vivo; conditions: SD rats, 25 mg/kg, intravenous injection
# Procedure: The compound 37 of the present invention was administrated intravenous injection or intragastrically to rats to determine the drug concentration in plasma at different time points by LC/MS/MS method. The pharmacokinetic behavior of the compounds of the present invention was studied and evaluated in rats.
# The right amount of tested compound was dissolved in 0.5 mL of DMSO, added with 1.5 mL of 0.1 M HCl, then diluted with normal saline to 2.5 mg/mL of suspension before use.
# 8 Healthy adult adult SD rats, male and female in half, were divided into 2 groups. After an overnight fast, the rats were administered intragastrically or administered via tail intravenous injection at a dose of 25.0 mg/kg.
# 25 μL of rat plasmas taken at various time points after administration were mixed with 20 μL of internal standard solution and 150 μL methanol for 3 minutes by using a vortexer and the mixture was centrifuged for 10 minutes at 13,500 rpm. 5 μL of the supernatant was analyzed by LC-MS/MS.
# Plasma concentration was used as the abscissa, the ratio of chromatographic peak area between the sample and internal standard was used as the ordinate, the linear regression was carried out by the weighted least square method (w=1/x^2). The main pharmacokinetic parameters were calculated by DAS 2.0 software.
SMILES,inhibition of the growth of HT-116 human colon cancer (in words) [1],Apparent Distribution Volume Vz/F [2] [L/kg]
"CC[C@@H]1C(=O)N(C)c2cnc(Nc3ccc(C(=O)NC4CCN(C)CC4)c4c3OCC4)nc2N1C1CCCC1 [Example 1, 7-[[(7R)-8-Cyclopentyl-7-ethyl-5-methyl-6-oxo-7H-pteridin-2-yl]amino]-N-(1-methyl-piperidyl)-2,3-dihydrobenzofuran-4-carboxamide]",markedly inhibited the growth,–
"CC[C@@H]1C(=O)N(C)c2cnc(Nc3ccc(C(=O)N[C@H]4CC[C@H](N5CCN(CC6CC6)CC5)CC4)c4c3OCC4)nc2N1C(C)C [Example 37, N-[(trans)-4-[4-(Cyclopropylmethyl)piperazin-1-yl]cyclohexyl]-7-[[(7R)-7-ethyl-8-isopropyl-5-methyl-6-oxo-7H-pteridin-2-yl]amino]-2,3-dihydrobenzofuran-4-carboxamide]",–,8.22 ± 1.74
